Results on 2 substances are retold here after paper doi:10.1101/2024.05.31.596776.

The chains behind the UniProt entries cited, without tags or fusion partners.
UniProt Q96CV9: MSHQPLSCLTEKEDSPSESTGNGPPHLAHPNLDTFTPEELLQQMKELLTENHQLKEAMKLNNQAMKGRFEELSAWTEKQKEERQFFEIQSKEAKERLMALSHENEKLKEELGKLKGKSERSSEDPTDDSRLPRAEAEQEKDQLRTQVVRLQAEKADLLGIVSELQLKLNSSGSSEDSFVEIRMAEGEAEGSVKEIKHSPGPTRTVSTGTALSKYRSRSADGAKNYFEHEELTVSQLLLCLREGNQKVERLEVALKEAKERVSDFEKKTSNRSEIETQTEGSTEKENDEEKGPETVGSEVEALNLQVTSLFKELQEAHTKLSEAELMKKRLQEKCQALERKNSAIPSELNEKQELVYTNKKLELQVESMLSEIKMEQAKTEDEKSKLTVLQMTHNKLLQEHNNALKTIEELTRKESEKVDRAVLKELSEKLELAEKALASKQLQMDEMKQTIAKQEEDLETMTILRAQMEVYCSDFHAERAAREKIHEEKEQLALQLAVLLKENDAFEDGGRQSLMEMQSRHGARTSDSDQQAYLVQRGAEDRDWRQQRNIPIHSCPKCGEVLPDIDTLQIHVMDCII
UniProt O75381: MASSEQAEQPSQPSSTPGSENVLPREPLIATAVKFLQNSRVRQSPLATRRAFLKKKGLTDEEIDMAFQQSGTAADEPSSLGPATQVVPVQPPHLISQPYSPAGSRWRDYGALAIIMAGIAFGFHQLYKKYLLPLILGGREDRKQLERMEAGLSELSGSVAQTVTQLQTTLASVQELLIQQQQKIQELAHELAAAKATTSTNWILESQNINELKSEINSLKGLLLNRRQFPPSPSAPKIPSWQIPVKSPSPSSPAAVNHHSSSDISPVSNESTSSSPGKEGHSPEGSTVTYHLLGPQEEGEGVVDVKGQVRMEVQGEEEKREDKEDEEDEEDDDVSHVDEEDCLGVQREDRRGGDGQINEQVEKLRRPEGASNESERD
UniProt Q9UHD2: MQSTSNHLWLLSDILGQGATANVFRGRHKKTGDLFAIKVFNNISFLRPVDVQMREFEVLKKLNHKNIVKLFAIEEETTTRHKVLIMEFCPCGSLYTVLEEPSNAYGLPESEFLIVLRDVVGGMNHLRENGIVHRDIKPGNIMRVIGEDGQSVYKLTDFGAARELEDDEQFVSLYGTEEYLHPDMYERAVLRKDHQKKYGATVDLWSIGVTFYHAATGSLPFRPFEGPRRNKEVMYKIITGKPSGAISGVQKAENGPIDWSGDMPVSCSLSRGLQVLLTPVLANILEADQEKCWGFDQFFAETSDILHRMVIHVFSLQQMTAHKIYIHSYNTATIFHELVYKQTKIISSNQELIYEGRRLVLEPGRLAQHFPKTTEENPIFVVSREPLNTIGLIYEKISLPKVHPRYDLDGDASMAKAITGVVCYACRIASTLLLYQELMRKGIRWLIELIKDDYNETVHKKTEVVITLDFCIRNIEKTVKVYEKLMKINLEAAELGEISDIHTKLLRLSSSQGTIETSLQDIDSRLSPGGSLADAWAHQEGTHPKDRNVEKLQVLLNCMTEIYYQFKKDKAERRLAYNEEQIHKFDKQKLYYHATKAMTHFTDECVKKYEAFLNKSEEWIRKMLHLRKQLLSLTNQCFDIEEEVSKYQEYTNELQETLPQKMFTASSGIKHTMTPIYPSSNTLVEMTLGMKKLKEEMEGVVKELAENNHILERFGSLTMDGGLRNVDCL

This assay deals with miniTurbo-OPTN_(1-577)-GFP (human) (UniProt Q96CV9). In words: proximity labelling.

No constants are given. Whether binding was seen depends on the method and setting. In cells and extracts the contact can be indirect. A yes stands for co-enrichment or nearness to the bait. Other partners may have been found.

“endogenous PEX14 (from UniProt O75381 1-377)”: the binding entry is listed as “binds”.
Turning to “TBK1 (TANK-binding kinase 1) (from UniProt Q9UHD2 1-729)”, the binding result is listed as “binds”.
